Results on 4 sequences are retold here after article PMC10966536.

Construct, isoform or probe ends are uncertain for at least one entry. A negative result means that nothing was seen under these conditions. The comparison behind a weaker result is the experiment's own reference, which may not be listed here. At least one verdict was read from the data and is not stated in words by the source.

The subject of this data set is NmPAL (PAS-ANTAR-LOV photoreceptor) (Nakamurella multipartita). Description: RiboGreen interaction assay. The following applies: recombinant protein.

As to “GCGGCCGCGUACAUCCAGCUGAUGAGUCCCAAAUAGGACAAAAGGUUCAGCAGCGAGCCUCCUGGAUUCCAGGCGGCCGC [OzS5 (cleavage-deficient, G12A)]”, the binding result reads like this: (blue light) “binds”; (darkness) “binds more weakly”.

For “GCGGCCGCGUACAUCCAGCUGAUGAGUCCCAAAUAGGACAAAAGGUUCAGCUGCGAGCCUCCUGGAUUCCAGGCGGCCGC [OzS5M21 (cleavage-deficient, G12A)]”, the binding result (blue light) was “no binding”.

For the sequence “GCGGCCGCGUACAUCCAGCUGAUGAGUCCCAAAUAGGACAAAAGUUCAGCAGCGAGCUCCUGGAUUCCAGGCGGCCGC [OzS4 (cleavage-deficient, G12A)]”, the binding result is, setting by setting: (blue light) “binds”; (darkness) “binds more weakly”. For “GCGGCCGCGUACAUCCAGCUGAUGAGUCCCAAAUAGGACAAAAGUUCAGCUGCGAGCUCCUGGAUUCCAGGCGGCCGC [OzS4M21 (cleavage-deficient, G12A)]”, the binding result (blue light) is listed as “no binding”.
